Test results reported in patent US20230288426A1, “REAGENT FOR MEASURING L-BIOTIN, METHOD FOR MEASURING SAMPLE CONTAINING L-BIOTIN, METHOD FOR DETERMINING NUMBER OF LABELS OF L-BIOTIN-LABELED SUBSTANCE, AND METHOD FOR PRODUCING SOLID PHASE ON WHICH OPTICALLY ISOMERIC BIOTIN-BINDING SITE IS IMMOBILIZED” (SYSMEX CORPORATION, priority 2022, published 2023).

Tests used:
[1] = system: optically isomeric streptavidin; assay: HABA method with reagent for measuring L-biotin (optically isomeric streptavidin + HABA), absorbance at 500 nm; assay type: binding
[2] = Protein concentration by A280 and number of biotin groups per molecule of biotin-labeled polypeptide; assay type: physicochemical; settings: biotin concentration divided by molar concentration of BSA or Fab′

Compound	A500 ([1]; L-biotin standard solution 25 μM, reagent for measuring L-biotin)	A500 ([1]; L-biotin standard solution 50 μM, reagent for measuring L-biotin)	Number of labels [2]	L-Biotin ([1]; from calibration curve, BSA sample value multiplied by 100)	A500 ([1]; sample with reagent for measuring L-biotin, BSA sample diluted 100-fold)
O=C(O)CCCC[C@H]1SC[C@H]2NC(=O)N[C@H]21 [L-Biotin, 3aR,4R,6aS-L-biotin]	0.264	0.216	–	–	–
D-Bio-BSA: BSA labeled with D-biotin AC5-NHS	–	–	9.1	–	–
L-Bio-BSA: BSA labeled with L-biotin-AC5-NHS	–	–	8.2	1231.9 µM	0.234
